Measured values published in the supplement of paper PMC10849652.
The other results are listed elsewhere or left out.

Amino acid sequences for entries named in this document (tags omitted). A change or cut given only in a name is not applied to a line headed by its entry.
UniProt P49593: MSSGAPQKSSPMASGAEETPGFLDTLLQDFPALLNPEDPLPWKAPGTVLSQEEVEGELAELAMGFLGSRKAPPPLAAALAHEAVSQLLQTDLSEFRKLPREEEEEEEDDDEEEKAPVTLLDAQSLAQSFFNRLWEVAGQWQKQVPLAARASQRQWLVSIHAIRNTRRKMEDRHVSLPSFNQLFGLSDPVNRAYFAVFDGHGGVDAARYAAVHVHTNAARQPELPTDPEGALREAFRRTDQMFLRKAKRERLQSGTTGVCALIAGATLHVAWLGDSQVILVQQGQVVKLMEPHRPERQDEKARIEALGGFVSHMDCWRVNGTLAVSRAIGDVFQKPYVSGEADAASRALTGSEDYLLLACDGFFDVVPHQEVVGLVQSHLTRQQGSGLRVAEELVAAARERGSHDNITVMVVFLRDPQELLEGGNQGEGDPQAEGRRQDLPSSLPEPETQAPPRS
UniProt P60891: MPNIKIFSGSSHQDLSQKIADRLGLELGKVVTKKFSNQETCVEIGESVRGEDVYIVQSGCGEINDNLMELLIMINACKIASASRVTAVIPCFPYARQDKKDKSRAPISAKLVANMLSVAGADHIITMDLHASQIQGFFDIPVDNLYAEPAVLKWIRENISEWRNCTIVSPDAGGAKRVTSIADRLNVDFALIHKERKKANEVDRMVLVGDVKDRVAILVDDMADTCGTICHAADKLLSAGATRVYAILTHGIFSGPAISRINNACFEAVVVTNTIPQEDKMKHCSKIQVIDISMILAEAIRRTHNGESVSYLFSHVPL
UniProt P67775, whole entry, looked up: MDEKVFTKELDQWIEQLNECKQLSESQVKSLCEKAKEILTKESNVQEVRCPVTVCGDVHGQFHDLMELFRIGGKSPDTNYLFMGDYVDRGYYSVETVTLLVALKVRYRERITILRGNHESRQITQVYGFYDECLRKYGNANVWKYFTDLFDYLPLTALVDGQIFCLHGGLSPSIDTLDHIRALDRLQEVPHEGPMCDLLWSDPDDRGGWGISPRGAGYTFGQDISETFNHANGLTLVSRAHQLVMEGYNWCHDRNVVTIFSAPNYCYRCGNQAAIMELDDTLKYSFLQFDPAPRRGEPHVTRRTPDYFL
UniProt P48147: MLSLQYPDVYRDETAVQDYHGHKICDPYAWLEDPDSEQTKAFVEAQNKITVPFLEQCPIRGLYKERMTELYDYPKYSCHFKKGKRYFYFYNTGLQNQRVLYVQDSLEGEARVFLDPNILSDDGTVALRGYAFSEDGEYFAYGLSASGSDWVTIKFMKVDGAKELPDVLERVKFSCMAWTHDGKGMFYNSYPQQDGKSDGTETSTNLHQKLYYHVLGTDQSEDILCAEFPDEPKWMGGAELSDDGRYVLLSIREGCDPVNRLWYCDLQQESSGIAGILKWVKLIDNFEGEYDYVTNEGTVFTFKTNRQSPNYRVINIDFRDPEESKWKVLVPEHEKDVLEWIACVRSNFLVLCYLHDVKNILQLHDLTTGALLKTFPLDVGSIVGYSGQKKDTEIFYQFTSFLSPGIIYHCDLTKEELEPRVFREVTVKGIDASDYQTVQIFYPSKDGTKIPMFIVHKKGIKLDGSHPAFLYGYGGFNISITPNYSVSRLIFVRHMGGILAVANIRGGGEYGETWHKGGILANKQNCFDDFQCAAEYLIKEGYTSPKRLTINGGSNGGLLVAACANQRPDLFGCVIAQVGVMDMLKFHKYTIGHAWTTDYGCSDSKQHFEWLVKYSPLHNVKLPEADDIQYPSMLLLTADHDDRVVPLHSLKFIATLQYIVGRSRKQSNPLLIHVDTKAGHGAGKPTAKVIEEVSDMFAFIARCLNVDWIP
UniProt O43172: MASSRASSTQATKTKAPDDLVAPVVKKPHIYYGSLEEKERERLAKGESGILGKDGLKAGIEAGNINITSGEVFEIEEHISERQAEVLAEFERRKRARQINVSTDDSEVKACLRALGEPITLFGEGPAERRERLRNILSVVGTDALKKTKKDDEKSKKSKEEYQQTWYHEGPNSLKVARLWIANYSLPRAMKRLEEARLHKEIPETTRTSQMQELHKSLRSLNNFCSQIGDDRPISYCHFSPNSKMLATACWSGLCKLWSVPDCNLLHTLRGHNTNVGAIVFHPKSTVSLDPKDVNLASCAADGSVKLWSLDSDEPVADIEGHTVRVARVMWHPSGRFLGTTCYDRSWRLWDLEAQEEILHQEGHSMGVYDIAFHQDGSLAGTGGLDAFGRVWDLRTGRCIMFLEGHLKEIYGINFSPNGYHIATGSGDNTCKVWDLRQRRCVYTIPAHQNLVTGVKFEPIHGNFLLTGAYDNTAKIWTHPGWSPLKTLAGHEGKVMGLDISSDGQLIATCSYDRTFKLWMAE
UniProt Q9UGJ0: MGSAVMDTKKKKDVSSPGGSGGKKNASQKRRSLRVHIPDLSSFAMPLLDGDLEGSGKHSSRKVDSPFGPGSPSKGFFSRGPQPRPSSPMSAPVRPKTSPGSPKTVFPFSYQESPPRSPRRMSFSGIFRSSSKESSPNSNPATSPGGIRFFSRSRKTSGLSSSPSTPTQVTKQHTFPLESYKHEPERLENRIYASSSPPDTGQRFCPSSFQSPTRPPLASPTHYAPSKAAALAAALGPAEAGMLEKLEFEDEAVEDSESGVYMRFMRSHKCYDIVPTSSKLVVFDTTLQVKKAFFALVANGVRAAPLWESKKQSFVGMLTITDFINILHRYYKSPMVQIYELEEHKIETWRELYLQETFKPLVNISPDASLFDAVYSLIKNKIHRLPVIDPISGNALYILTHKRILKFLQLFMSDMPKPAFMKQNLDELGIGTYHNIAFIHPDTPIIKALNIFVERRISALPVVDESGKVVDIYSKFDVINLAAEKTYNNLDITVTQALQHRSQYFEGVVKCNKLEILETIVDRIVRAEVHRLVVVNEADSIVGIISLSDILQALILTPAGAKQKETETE
UniProt Q6P2P2: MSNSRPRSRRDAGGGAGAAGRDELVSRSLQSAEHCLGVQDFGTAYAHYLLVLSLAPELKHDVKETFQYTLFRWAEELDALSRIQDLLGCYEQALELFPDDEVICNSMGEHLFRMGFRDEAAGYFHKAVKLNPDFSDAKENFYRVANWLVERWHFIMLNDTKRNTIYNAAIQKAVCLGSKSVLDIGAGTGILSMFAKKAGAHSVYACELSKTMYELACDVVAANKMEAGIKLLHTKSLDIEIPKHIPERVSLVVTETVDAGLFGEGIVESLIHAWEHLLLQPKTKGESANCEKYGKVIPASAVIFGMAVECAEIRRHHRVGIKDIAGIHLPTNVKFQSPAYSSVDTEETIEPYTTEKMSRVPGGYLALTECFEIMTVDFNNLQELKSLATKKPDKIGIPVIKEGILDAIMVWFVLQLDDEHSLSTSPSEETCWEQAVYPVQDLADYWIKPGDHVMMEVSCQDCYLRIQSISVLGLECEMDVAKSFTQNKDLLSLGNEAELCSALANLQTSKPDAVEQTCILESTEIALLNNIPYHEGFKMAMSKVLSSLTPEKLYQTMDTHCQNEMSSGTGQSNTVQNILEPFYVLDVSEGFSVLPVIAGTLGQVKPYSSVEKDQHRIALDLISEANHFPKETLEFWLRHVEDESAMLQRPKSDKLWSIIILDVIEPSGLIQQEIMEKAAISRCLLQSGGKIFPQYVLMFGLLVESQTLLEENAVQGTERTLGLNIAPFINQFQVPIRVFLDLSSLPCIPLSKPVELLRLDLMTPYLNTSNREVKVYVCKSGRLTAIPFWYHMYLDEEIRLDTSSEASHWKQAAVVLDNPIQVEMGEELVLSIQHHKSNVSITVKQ
UniProt P41236: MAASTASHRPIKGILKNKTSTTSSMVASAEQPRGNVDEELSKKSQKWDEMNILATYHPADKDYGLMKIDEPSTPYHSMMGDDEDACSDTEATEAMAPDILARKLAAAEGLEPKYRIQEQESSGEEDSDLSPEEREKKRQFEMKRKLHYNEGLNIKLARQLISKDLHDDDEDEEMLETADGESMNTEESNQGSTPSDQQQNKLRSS
UniProt Q86WR7: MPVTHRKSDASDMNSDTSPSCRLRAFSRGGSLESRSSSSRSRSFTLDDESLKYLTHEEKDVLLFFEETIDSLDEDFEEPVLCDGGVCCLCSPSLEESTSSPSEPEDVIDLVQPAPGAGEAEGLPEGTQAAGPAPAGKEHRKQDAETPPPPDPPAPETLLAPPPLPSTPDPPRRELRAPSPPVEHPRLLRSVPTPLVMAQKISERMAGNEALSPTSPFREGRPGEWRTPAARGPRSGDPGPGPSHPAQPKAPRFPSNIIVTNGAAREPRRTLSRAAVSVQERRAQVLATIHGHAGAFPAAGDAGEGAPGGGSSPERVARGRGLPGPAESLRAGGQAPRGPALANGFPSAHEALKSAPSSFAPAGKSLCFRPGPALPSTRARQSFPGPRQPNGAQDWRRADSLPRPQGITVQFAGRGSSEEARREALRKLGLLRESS
UniProt Q8WY54: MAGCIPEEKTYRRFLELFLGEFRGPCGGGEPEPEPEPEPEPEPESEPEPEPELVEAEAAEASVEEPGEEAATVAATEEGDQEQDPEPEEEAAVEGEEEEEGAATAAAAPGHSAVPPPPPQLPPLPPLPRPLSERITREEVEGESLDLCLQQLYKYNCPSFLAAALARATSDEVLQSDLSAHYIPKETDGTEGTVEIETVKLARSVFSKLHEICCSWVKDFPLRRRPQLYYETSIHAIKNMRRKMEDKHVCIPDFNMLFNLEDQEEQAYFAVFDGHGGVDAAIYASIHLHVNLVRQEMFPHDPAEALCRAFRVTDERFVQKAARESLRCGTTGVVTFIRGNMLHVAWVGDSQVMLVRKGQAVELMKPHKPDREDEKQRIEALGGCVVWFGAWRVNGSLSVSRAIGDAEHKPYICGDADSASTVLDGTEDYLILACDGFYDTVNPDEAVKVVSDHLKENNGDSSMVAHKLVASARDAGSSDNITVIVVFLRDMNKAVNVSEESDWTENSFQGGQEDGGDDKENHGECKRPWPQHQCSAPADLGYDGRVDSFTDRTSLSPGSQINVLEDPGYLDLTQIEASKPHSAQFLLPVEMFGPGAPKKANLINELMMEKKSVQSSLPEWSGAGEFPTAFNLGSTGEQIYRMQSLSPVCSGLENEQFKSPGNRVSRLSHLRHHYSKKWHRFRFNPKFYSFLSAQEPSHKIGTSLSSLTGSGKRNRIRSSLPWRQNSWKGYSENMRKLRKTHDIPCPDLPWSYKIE
UniProt Q96QC0: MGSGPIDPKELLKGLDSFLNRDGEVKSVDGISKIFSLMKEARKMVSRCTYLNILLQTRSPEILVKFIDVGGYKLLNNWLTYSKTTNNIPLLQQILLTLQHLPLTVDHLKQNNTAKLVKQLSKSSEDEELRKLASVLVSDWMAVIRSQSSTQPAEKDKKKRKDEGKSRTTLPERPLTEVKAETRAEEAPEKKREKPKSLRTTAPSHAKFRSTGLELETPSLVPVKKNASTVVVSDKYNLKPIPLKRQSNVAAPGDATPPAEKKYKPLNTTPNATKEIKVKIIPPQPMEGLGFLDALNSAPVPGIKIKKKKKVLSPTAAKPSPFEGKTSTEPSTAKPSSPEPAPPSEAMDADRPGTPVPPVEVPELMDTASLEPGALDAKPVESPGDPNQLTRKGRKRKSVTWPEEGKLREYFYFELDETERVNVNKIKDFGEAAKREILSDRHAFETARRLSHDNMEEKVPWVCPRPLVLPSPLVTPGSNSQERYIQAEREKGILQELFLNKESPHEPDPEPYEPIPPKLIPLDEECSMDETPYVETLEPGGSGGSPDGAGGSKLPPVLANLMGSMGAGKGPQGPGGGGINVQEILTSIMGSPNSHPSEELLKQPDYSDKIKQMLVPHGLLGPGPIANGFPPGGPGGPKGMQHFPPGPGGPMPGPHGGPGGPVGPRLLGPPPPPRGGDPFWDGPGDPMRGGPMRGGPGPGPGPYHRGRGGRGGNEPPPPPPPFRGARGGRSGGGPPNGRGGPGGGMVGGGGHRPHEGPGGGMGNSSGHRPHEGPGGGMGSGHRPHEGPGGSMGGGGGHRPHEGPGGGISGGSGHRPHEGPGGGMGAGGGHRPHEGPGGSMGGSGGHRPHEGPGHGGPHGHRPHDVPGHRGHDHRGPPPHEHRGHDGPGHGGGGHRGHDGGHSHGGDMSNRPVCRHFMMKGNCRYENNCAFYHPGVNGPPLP
UniProt Q99873, whole entry, looked up: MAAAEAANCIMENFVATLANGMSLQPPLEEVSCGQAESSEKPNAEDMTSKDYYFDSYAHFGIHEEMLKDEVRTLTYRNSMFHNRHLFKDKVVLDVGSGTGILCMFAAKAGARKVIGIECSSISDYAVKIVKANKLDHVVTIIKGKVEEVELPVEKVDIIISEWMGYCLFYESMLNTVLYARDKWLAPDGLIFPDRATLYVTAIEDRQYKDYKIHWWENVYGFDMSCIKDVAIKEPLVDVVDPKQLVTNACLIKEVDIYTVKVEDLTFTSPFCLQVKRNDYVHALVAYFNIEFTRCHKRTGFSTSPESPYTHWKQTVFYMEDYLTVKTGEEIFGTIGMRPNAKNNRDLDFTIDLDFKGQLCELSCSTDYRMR

Experiments:
Assay in all cases: log2 fold change, soluble protein after heating vs DMSO (PISA); higher = thermal stabilisation; K562 cells, 10 uM, 30 min; active = over 0.2 and 3.5 SD of the protein, either way, in both replicates (recomputed)
[1] = compound: CC[C@@H]1C(=O)N(C)c2cnc(Nc3ccc(C(=O)NC4CCN(C)CC4)cc3OC)nc2N1C1CCCC1
In short: (§1)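 K562 cells at 2×10^6 cells/mL were treated for 30 min with 10 μM compound, and aliquots were heated for 3 min over 48°C-58°C before pooling. Extraction used PBS with 0.5% NP-40 at 4°C, and soluble protein was the supernatant after 21,000xg for 90 min, measured by TMTpro 16plex LC-MS/MS with channel sums equalised. Thermal stability values, relative to control samples and from duplicates, are log2 fold changes.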

volasertib = compound: CC[C@@H]1C(=O)N(C)c2cnc(Nc3ccc(C(=O)N[C@H]4CC[C@H](N5CCN(CC6CC6)CC5)CC4)cc3OC)nc2N1C(C)C [volasertib]
In short: as §1

[2] = compound: CC[C@H](C)N1C=C(C2=C(C=C(C=C21)C3=CN=C(C=C3)N4CCNCC4)C(=O)NCC5=C(C=C(NC5=O)C)C)C
In short: as §1

epoxomicin = compound: CC[C@H](C)[C@@H](C(=O)N[C@@H]([C@@H](C)O)C(=O)N[C@@H](CC(C)C)C(=O)[C@]1(CO1)C)NC(=O)[C@H]([C@@H](C)CC)N(C)C(=O)C [epoxomicin]
In short: as §1

[3] = compound: CCn1c(C(=O)N(C2CC2)C2CC2)cc2c3c(ncn3C)c(Nc3cc(C)n(C)n3)nc21
In short: as §1

[4] = compound: CCn1cc(-c2ccnc3[nH]c(-c4cccc(CN(C)C)c4)cc23)c(-c2ccc(NC(=O)N(C)C)cc2)n1
In short: as §1

[5] = compound: CN(C)CC(=O)Nc1ccc2[nH]c(=O)c3ccccc3c2c1
In short: as §1

rosiglitazone = compound: CN(CCOC1=CC=C(C=C1)C[C@H]2C(=O)NC(=O)S2)C3=CC=CC=N3 (racemic) [rosiglitazone]
In short: as §1

[6] = compound: CN1C2=C(C3=C1C(=O)N(N=C3)CC4=CC(=CC=C4)N)SC(=C2)S(=O)C
In short: as §1

[7] = compound: CN1CCC(CNc2ccc3ncc(-c4cccc(OC(F)(F)F)c4)n3n2)CC1
In short: as §1

saracatinib = compound: CN1CCN(CCOc2cc(OC3CCOCC3)c3c(Nc4c(Cl)ccc5c4OCO5)ncnc3c2)CC1 [saracatinib]
In short: as §1

sotrastaurin = compound: CN1CCN(c2nc(C3=C(c4c[nH]c5ccccc45)C(=O)NC3=O)c3ccccc3n2)CC1 [sotrastaurin]
In short: as §1

alvocidib = compound: CN1CC[C@H](c2c(O)cc(O)c3c(=O)cc(-c4ccccc4Cl)oc23)[C@H](O)C1 [alvocidib]
In short: as §1

Tubastatin A = compound: CN1CCc2c(c3ccccc3n2Cc2ccc(C(=O)NO)cc2)C1 [Tubastatin A]
In short: as §1

[8] = compound: CNC(=O)C1=CC=CC=C1NC2=NC(=NC=C2Cl)NC3=C(C=C(C=C3)N4CCOCC4)OC
In short: as §1

defactinib = compound: CNC(=O)c1ccc(Nc2ncc(C(F)(F)F)c(NCc3nccnc3N(C)S(C)(=O)=O)n2)cc1 [defactinib]
In short: as §1

rucaparib = compound: CNCc1ccc(-c2[nH]c3cc(F)cc4c3c2CCNC4=O)cc1 [rucaparib]
In short: as §1

[9] = compound: CNc1nc(-c2ccc3c(N)n[nH]c3c2)cc(N2C[C@@H](C(=O)NC3CCCCC3)CC[C@H]2C)n1
In short: as §1

encorafenib = compound: COC(=O)N[C@@H](C)CNc1nccc(-c2cn(C(C)C)nc2-c2cc(Cl)cc(NS(C)(=O)=O)c2F)n1 [encorafenib]
In short: as §1

[10] = compound: COC(=O)[C@H](CCSC)NC(=O)C1=C(C=C(C=C1)NC[C@H](CS)N)C2=CC=CC=C2
In short: as §1

Measured: log2 fold change

PPM1F (UniProt P49593)
inactive: [1] -0.062 | volasertib 0.081 | [2] 0.059 | epoxomicin 0.008 | [3] 0 | [4] -0.098 | [5] -0.002 | rosiglitazone 0.09 | [6] -0.034 | [7] -0.065 | saracatinib -0.04 | sotrastaurin -0.017 | alvocidib -0.064 | Tubastatin A 0.013 | [8] 0.023 | defactinib -0.016 | rucaparib -0.021 | [9] 0.006 | encorafenib -0.013 | [10] -0.048

PRPS1 (UniProt P60891)
inactive: [1] 0.045 | volasertib 0.035 | [2] -0.04 | epoxomicin 0.006 | [3] 0.014 | [4] 0.018 | [5] -0.063 | rosiglitazone 0.006 | [6] -0.009 | [7] -0.001 | saracatinib 0.009 | sotrastaurin 0.05 | alvocidib 0.044 | Tubastatin A 0.008 | [8] -0.045 | defactinib 0.01 | rucaparib -0.009 | [9] 0.003 | encorafenib -0.025 | [10] -0.033

PRKCSH (UniProt P14314)
inactive: [1] -0.02 | volasertib -0.017 | [2] 0.02 | epoxomicin 0.097 | [3] 0.03 | [4] -0.006 | [5] 0.005 | rosiglitazone -0.003 | [6] -0.025 | [7] 0.078 | saracatinib 0.006 | sotrastaurin 0.023 | alvocidib -0.014 | Tubastatin A -0.004 | [8] 0.009 | defactinib -0.012 | rucaparib -0.045 | [9] 0.048 | encorafenib 0.018 | [10] 0.005

PPP2CA (UniProt P67775)
inactive: [1] -0.009 | volasertib 0.011 | [2] -0.024 | epoxomicin 0.001 | [3] 0.01 | [4] 0.01 | [5] -0.013 | rosiglitazone 0.032 | [6] -0.014 | [7] 0.002 | saracatinib 0.014 | sotrastaurin 0.05 | alvocidib -0.012 | Tubastatin A 0.001 | [8] -0.001 | defactinib -0.033 | rucaparib -0.094 | [9] -0.028 | encorafenib 0.031 | [10] 0.021

PRRC2B (UniProt Q5JSZ5)
inactive: [1] -0.047 | volasertib 0.056 | [2] 0.042 | epoxomicin -0.028 | [3] 0.014 | [4] 0.077 | [5] -0.026 | rosiglitazone 0.013 | [6] 0.048 | [7] 0.052 | saracatinib 0.046 | sotrastaurin 0.05 | alvocidib -0.002 | Tubastatin A 0.071 | [8] -0.022 | defactinib 0.007 | rucaparib 0 | [9] -0.065 | encorafenib -0.059 | [10] 0.028

PREP (UniProt P48147)
inactive: [1] 0.051 | volasertib -0.258 | [2] 0.095 | epoxomicin 0.078 | [3] -0.046 | [4] -0.013 | [5] 0.045 | rosiglitazone 0.052 | [6] 0.09 | [7] -0.006 | saracatinib -0.031 | sotrastaurin -0.063 | alvocidib -0.036 | Tubastatin A 0.077 | [8] 0.014 | defactinib -0.079 | rucaparib 0.154 | [9] 0.048 | encorafenib 0.161 | [10] -0.029

PRPF4 (UniProt O43172)
inactive: [1] -0.006 | volasertib -0.098 | [2] 0.02 | epoxomicin -0.012 | [3] -0.023 | [4] -0.041 | [5] 0.034 | rosiglitazone 0.004 | [6] 0.007 | [7] -0.03 | saracatinib -0.011 | sotrastaurin -0.018 | alvocidib -0.14 | Tubastatin A -0.007 | [8] -0.016 | defactinib -0.114 | rucaparib 0.081 | [9] -0.026 | encorafenib 0.01 | [10] 0.047

PRKAG2 (UniProt Q9UGJ0)
inactive: [1] -0.072 | volasertib -0.154 | [2] 0.049 | epoxomicin 0.028 | [3] 0.013 | [4] -0.053 | [5] 0.019 | rosiglitazone 0.033 | [6] -0.035 | [7] -0.129 | saracatinib 0.011 | sotrastaurin 0.002 | alvocidib -0.032 | Tubastatin A -0.033 | [8] -0.125 | defactinib -0.019 | rucaparib -0.045 | [9] -0.071 | encorafenib 0.053 | [10] 0.036

PRMT9 (UniProt Q6P2P2)
inactive: [1] -0.158 | volasertib -0.207 | [2] 0.04 | epoxomicin 0.07 | [3] -0.03 | [4] 0.001 | [5] 0.013 | rosiglitazone 0.064 | [6] -0.045 | [7] -0.041 | saracatinib 0.07 | sotrastaurin 0.233 | alvocidib 0.005 | Tubastatin A -0.031 | [8] 0.065 | defactinib -0.025 | rucaparib 0.083 | [9] 0.013 | encorafenib -0.098 | [10] -0.018

PPP1R2 (UniProt P41236)
inactive: [1] 0.054 | volasertib 0.103 | [2] -0.021 | epoxomicin -0.033 | [3] 0.039 | [4] 0.039 | [5] -0.018 | rosiglitazone -0.004 | [6] -0.073 | [7] -0.051 | saracatinib 0.01 | sotrastaurin 0.08 | alvocidib -0.007 | Tubastatin A 0.031 | [8] -0.035 | defactinib -0.031 | rucaparib -0.041 | [9] -0.01 | encorafenib -0.027 | [10] 0.015

PROSER2 (UniProt Q86WR7)
inactive: [1] -0.111 | volasertib -0.117 | [2] 0.076 | epoxomicin 0.007 | [3] -0.019 | [4] 0.029 | [5] 0.023 | rosiglitazone 0.038 | [6] 0.05 | [7] -0.217 | saracatinib -0.065 | sotrastaurin -0.01 | alvocidib 0.022 | Tubastatin A -0.041 | [8] -0.036 | defactinib 0.015 | rucaparib -0.116 | [9] -0.094 | encorafenib 0.004 | [10] -0.025

PRPF19 (UniProt Q9UMS4)
inactive: [1] 0.093 | volasertib 0.132 | [2] -0.055 | epoxomicin -0.036 | [3] 0.024 | [4] 0.034 | [5] -0.038 | rosiglitazone -0.034 | [6] -0.044 | [7] 0.105 | saracatinib 0.046 | sotrastaurin 0.023 | alvocidib 0.123 | Tubastatin A -0.108 | [8] -0.023 | defactinib 0.062 | rucaparib -0.006 | [9] -0.045 | encorafenib -0.029 | [10] 0.012

PPM1E (UniProt Q8WY54)
inactive: [1] -0.002 | volasertib -0.108 | [2] -0.05 | epoxomicin 0.163 | [3] 0.01 | [4] -0.08 | [5] -0.015 | rosiglitazone -0.02 | [6] -0.058 | [7] -0.04 | saracatinib -0.059 | sotrastaurin 0.037 | alvocidib -0.241 | Tubastatin A -0.009 | [8] 0.02 | defactinib 0.024 | rucaparib -0.014 | [9] -0.036 | encorafenib 0.002 | [10] 0.006

PPP4R1 (UniProt Q8TF05)
inactive: [1] -0.071 | volasertib -0.17 | [2] 0.045 | epoxomicin 0.048 | [3] 0.004 | [4] -0.06 | [5] 0.013 | rosiglitazone 0.045 | [6] -0.083 | [7] -0.068 | saracatinib 0.019 | sotrastaurin -0.03 | alvocidib -0.047 | Tubastatin A -0.041 | [8] 0.027 | defactinib -0.035 | rucaparib 0.014 | [9] 0.034 | encorafenib -0.018 | [10] -0.029

Reprinted at random: 2 entries already listed.
PRPF19 (UniProt Q9UMS4)
inactive: [1] 0.093 | volasertib 0.132 | [2] -0.055 | epoxomicin -0.036 | [3] 0.024 | [4] 0.034 | [5] -0.038 | rosiglitazone -0.034 | [6] -0.044 | [7] 0.105 | saracatinib 0.046 | sotrastaurin 0.023 | alvocidib 0.123 | Tubastatin A -0.108 | [8] -0.023 | defactinib 0.062 | rucaparib -0.006 | [9] -0.045 | encorafenib -0.029 | [10] 0.012

PPP4R1 (UniProt Q8TF05)
inactive: [1] -0.071 | volasertib -0.17 | [2] 0.045 | epoxomicin 0.048 | [3] 0.004 | [4] -0.06 | [5] 0.013 | rosiglitazone 0.045 | [6] -0.083 | [7] -0.068 | saracatinib 0.019 | sotrastaurin -0.03 | alvocidib -0.047 | Tubastatin A -0.041 | [8] 0.027 | defactinib -0.035 | rucaparib 0.014 | [9] 0.034 | encorafenib -0.018 | [10] -0.029

(listing goes on)

PPP1R10 (UniProt Q96QC0)
inactive: [1] 0.307 | volasertib 0.142 | [2] -0.019 | epoxomicin -0.184 | [3] -0.024 | [4] 0.149 | [5] -0.085 | rosiglitazone -0.12 | [6] 0.203 | [7] 0.114 | saracatinib -0.027 | sotrastaurin -0.004 | alvocidib 0.291 | Tubastatin A -0.017 | [8] -0.025 | defactinib 0.391 | rucaparib 0.356 | [9] 0.014 | encorafenib 0.11 | [10] 0.032

PRMT1 (UniProt Q99873)
inactive: [1] -0.034 | volasertib -0.019 | [2] 0.017 | epoxomicin 0.016 | [3] -0.002 | [4] -0.079 | [5] -0.017 | rosiglitazone 0.019 | [6] -0.035 | [7] -0.005 | saracatinib 0.012 | sotrastaurin 0.019 | alvocidib -0.058 | Tubastatin A -0.028 | [8] 0 | defactinib 0.013 | rucaparib -0.023 | [9] 0.036 | encorafenib 0.004 | [10] -0.042
